Laboratory results: patent publication US12729407B2, “Mucins and isoforms thereof in diseases characterized by barrier dysfunction” (priority 2020, dated 2026)
At least one compound was matched to its structure with a doubt left.

System: Calu3 cells infected with SARS-CoV-2
Format: cell-based, human
Settings: for mucin hypersecretion (mucins of the signature: MUC13, MUC21, MUC16 and MUC1): concluding remark on the Calu3 drug screen

Row | SMILES | MUC1 mRNA expression | MUC4 mRNA expression | MUC5AC mRNA expression | MUC5B mRNA expression | MUC13 mRNA expression | MUC21 mRNA expression | mucin hypersecretion (mucins of the signature: MUC13, MUC21, MUC16 and MUC1)
1 | CCS(=O)(=O)N1CC(CC#N)(n2cc(-c3ncnc4[nH]ccc34)cn2)C1 [baricitinib, Baricitinib] | significantly reduce | significantly reduce | significantly reduce | significantly reduce | significantly reduce | significantly reduce | suppress mucin hypersecretion
2 | C[C@@H]1C[C@H]2[C@@H]3CCC4=CC(=O)C=C[C@]4(C)[C@@]3(F)[C@@H](O)C[C@]2(C)[C@@]1(O)C(=O)CO [dexamethasone, Dexamethasone] | significantly increased | – | – | – | – | significantly increased | –
3 | CCC(CC)COC(=O)[C@H](C)N[P@](=O)(OC[C@H]1O[C@@](C#N)(c2ccc3c(N)ncnn23)[C@H](O)[C@@H]1O)Oc1ccccc1 [remdesivir, Remdesivir] | significantly reduce | significantly reduce | significantly reduce | significantly reduce | significantly reduce | significantly reduce | suppress mucin hypersecretion
